Results are given in words; binding and its absence hold for the method and conditions named. In cells and extracts the contact can be indirect. Some binding calls cover weakened binding; strength is not graded here.
Target: estrogen receptor α (ERα), expressed in cells (human) (UniProt P03372)
Assay: coimmunoprecipitation from COS-1 cells coexpressing Myc-MUC1-CD and ERα (anti-ERα IP with anti-MUC1-CD blot; reciprocal anti-Myc IP with anti-ERα blot); E2 increased binding

The chains behind the UniProt entries cited, without tags or fusion partners. Where a name states a change or a piece, a line headed by the entry shows the natural chain unless it says otherwise.
UniProt P03372: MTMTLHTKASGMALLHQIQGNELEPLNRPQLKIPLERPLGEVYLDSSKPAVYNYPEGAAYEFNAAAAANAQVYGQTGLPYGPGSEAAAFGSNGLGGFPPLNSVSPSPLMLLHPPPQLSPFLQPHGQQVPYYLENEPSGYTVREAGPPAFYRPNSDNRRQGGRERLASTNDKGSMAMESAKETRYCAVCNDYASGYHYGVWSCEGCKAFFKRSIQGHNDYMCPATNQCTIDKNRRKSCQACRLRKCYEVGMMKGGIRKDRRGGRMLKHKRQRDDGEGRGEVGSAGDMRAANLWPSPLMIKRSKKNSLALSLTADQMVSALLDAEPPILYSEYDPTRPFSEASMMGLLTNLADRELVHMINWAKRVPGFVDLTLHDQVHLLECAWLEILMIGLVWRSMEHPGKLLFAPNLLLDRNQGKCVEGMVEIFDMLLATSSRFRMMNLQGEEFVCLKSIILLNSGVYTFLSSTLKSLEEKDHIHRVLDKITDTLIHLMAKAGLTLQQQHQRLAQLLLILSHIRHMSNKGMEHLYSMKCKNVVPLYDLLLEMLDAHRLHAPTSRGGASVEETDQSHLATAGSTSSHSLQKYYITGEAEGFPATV
UniProt P15941: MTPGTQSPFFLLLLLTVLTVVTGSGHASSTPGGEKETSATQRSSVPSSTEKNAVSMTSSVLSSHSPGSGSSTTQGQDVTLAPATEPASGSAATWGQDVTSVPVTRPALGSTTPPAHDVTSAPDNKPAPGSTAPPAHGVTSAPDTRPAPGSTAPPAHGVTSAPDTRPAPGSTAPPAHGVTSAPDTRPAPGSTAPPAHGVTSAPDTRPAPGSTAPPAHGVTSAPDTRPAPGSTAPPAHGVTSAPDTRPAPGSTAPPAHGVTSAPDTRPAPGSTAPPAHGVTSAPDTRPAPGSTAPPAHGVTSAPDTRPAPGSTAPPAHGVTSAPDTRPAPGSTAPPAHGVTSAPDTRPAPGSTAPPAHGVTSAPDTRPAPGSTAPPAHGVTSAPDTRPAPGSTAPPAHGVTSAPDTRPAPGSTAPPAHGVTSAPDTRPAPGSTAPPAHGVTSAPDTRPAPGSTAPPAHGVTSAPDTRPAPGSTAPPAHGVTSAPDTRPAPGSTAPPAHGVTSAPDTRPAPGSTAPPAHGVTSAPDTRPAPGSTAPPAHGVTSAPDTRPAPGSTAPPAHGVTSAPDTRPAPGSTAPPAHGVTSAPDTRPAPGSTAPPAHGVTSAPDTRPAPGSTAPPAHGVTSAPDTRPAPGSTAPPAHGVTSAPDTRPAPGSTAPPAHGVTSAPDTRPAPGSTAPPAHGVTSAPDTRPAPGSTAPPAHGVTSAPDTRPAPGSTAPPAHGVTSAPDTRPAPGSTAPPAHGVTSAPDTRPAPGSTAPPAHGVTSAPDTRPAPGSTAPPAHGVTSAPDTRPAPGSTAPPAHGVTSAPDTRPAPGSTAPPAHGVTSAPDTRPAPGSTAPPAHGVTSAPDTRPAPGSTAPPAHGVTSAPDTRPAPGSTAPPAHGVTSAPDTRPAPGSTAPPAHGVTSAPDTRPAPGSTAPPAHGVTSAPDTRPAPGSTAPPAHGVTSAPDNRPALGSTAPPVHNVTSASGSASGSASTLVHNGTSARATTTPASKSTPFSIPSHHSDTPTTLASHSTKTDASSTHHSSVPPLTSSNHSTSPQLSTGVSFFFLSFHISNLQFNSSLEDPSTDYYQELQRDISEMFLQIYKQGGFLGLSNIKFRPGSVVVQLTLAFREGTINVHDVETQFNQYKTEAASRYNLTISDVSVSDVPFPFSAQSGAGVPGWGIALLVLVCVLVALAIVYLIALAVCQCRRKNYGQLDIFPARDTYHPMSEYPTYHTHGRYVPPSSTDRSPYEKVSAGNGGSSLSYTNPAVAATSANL

Substance: Myc-tagged MUC1 cytoplasmic domain (Myc-MUC1-CD) (from UniProt P15941 1184-1255)
- binding: binds
